{"source": "patent US20250262229A1", "about": "“APPLICATION OF PHD2 INHIBITOR IN PREPARATION OF DRUGS FOR PREVENTION AND TREATMENT OF PLATELET THROMBUS” (Nankai University, priority 2024, published 2025)", "tested_on": "LPS-induced DIC model in mice", "experiment": "LPS-induced disseminated intravascular coagulation (DIC) model in mice", "type": "in vivo", "conditions": "aspirin 10 mg/kg taken orally, Daprodustat 10 mg/kg intraperitoneal injection", "protocol": "The sh-PHD2 mice and sh-ctrl blank mice are randomly divided into a blank group and a model group, with 6 mice in each group. The model group is injected intraperitoneally with 10 milligrams per kilogram (mg/kg) lipopolysaccharide abbreviated as LPS (Beijing Solarbio Science & Technology Co., Ltd., Cat. No. L8880) to induce the mice to establish a disseminated intravascular coagulation (DIC) model, and the blank group is injected intraperitoneally with the corresponding volume of physiological saline. After 2 hours, the mice are anesthetized by intraperitoneal injection of 1% pentobarbital sodium (40 mg/kg), and the tail is cut at a site of 3 millimeters (mm) from the tip of the tail of each mouse, and the tail is placed vertically in 37° C. physiological saline immediately after the first drop of blood is sucked up on filter paper to record the tail bleeding time.\nIn addition to the blank group, the other groups use the method of the embodiment 1 to prepare the LPS-induced DIC model in mice, and the administration group is given drug intervention 1 hour before modeling.", "note": "For at least one compound, name, drawing or mass did not settle the structure."}
{"smiles": "O=C(O)CNC(=O)C1C(=O)N(C2CCCCC2)C(=O)N(C2CCCCC2)C1=O", "note": "[Daprodustat]", "values": [{"measurement": "pulmonary thrombi, Masson staining of lung tissues", "result": "significantly inhibit the formation of thrombus"}, {"measurement": "tail bleeding time", "setting": "vs LPS group", "result": "significantly increase"}, {"measurement": "tail bleeding volume", "setting": "vs LPS group", "result": "significantly increase"}]}
